Measured values from publication PMC10345229.
These are yes or no findings as the source states them, for the method shown. In cells and extracts the contact can be indirect. Some entries that bind do so weakly or less than the wild type. For some assays here: Tags and fused reporters may be left off the sequences shown.

By UniProt entry, the sequences of proteins in these tests, tags left out.
UniProt P23443: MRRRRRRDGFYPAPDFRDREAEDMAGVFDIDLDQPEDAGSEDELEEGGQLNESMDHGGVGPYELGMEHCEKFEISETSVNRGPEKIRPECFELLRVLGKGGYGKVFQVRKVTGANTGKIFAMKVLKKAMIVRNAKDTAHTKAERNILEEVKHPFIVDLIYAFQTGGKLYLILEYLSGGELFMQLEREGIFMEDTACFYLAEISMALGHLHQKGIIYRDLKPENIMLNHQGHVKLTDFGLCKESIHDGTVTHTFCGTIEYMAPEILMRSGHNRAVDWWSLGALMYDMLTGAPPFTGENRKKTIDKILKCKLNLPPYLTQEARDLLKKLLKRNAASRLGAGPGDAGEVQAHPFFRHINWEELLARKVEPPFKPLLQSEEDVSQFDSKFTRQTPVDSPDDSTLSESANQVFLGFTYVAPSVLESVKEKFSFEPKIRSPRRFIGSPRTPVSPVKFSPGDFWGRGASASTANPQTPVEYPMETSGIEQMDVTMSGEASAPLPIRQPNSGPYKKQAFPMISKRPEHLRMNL

T1: FLAG-PPM1H (protein phosphatase magnesium- or manganous-dependent 1H) (UniProt Q9ULR3)
T1 sequence: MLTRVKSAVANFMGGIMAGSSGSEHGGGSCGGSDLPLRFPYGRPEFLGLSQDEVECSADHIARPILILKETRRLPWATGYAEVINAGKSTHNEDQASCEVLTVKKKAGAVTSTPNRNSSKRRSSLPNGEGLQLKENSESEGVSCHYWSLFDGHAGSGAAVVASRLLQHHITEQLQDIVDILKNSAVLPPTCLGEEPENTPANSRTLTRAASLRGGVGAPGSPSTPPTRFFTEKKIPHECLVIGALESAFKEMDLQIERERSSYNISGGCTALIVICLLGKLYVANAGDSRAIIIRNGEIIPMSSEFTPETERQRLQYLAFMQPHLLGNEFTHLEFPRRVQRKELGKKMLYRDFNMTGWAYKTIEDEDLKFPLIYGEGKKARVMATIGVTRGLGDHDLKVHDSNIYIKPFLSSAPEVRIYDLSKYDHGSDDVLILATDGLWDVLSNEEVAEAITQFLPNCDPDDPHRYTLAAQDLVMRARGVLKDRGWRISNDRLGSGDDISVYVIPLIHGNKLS


Experiments:
[1] = biological target: T1, FLAG-PPM1H (protein phosphatase magnesium- or manganous-dependent 1H); experiment: co-IP; RIPA lysates of transfected Hep-G2 or Huh-7 cells, serum-free overnight, with or without insulin (10 ug/mL, 2 h before harvest); specific or isotype control antibody at 4 °C overnight, Protein A/G Plus-agarose 2 h, PBS washes, immunoblot
[2] = biological target: FLAG-RPS6KB1 (ribosomal protein S6 kinase B1) (UniProt P23443); experiment: as above

binding [1]	binding [2]	Molecule
binds	–	ribosomal protein S6 kinase B1 (RPS6KB1), endogenous (from UniProt P23443 1-525) (enzyme)
–	binds	PPM1H, endogenous (enzyme, UniProt Q9ULR3 1-514) MLTRVKSAVANFMGGIMAGSSGSEHGGGSCGGSDLPLRFPYGRPEFLGLSQDEVECSADHIARPILILKETRRLPWATGYAEVINAGKSTHNEDQASCEVLTVKKKAGAVTSTPNRNSSKRRSSLPNGEGLQLKENSESEGVSCHYWSLFDGHAGSGAAVVASRLLQHHITEQLQDIVDILKNSAVLPPTCLGEEPENTPANSRTLTRAASLRGGVGAPGSPSTPPTRFFTEKKIPHECLVIGALESAFKEMDLQIERERSSYNISGGCTALIVICLLGKLYVANAGDSRAIIIRNGEIIPMSSEFTPETERQRLQYLAFMQPHLLGNEFTHLEFPRRVQRKELGKKMLYRDFNMTGWAYKTIEDEDLKFPLIYGEGKKARVMATIGVTRGLGDHDLKVHDSNIYIKPFLSSAPEVRIYDLSKYDHGSDDVLILATDGLWDVLSNEEVAEAITQFLPNCDPDDPHRYTLAAQDLVMRARGVLKDRGWRISNDRLGSGDDISVYVIPLIHGNKLS
